Test results taken from paper PMC9449597.

The chains behind the UniProt entries cited, without tags or fusion partners. Where a name states a change or a piece, a line headed by the entry shows the natural chain unless it says otherwise. Residues count along the entry.
UniProt P02769, residues 25-607: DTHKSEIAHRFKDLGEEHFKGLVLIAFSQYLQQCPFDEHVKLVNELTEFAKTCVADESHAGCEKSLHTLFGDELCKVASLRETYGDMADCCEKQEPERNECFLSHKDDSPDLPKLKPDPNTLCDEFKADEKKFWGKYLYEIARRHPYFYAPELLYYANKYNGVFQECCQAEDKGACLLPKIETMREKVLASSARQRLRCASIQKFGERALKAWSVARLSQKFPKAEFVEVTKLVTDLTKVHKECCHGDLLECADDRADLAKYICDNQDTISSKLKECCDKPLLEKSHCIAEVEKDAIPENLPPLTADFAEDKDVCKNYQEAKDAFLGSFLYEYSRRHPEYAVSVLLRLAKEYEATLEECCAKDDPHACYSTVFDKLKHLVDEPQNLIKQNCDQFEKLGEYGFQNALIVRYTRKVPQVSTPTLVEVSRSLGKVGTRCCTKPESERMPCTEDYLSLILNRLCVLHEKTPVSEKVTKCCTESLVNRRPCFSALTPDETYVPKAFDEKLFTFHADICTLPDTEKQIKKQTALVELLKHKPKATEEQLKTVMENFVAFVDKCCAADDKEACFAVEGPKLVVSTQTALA
UniProt Q8N539: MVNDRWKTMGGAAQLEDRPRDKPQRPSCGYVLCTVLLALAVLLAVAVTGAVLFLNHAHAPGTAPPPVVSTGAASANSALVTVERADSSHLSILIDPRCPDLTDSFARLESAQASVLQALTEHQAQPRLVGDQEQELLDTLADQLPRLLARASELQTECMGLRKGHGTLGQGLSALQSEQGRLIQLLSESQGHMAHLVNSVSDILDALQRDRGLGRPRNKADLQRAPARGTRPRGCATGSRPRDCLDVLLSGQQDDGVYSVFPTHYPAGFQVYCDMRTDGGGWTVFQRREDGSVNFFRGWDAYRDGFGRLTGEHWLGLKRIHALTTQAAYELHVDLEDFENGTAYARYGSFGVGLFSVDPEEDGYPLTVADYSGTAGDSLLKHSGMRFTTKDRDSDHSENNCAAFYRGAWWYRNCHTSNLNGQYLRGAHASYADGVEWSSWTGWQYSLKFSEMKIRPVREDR

Target: acetylated BSA (bovine (from the name BSA)) (UniProt P02769)
Assay: ELISA; competitive ELISA: recombinant FIBCD1 FReD incubated with acetylated BSA and increasing concentrations of CS-4S or CS-6S; as described in Schlosser et al, 2009; both purified

Which binding does the source give for “recombinant FIBCD1 FReD (fibrinogen-related domain of Fibrinogen C Domain Containing 1) (from UniProt Q8N539) (domain or fragment)” here?
Its binding is “binds”.

These are yes or no findings as the source states them, for the method shown. Binding calls can cover weak binding; strength is not graded here.
